Reference: the supplement of paper PMC10735217
Counter-ions that a name gives are not always drawn. The list shows a part of the results. This data set is noisy: repeats of one test often differ as much as different tests do.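 In a drug-repurposing library screen, luminescence reads luciferase driven by eight TEAD-binding elements, stably integrated into human kidney-derived cells. Compounds scoring over five robust Z scores above the plate mean are called hits.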

System: HEK293A TEAD-LUC reporter
Experiment: TEAD-luciferase reporter activity (YAP activation), robust Z score vs plate; higher = stronger YAP/TEAD activation
Conditions: 24 h

Structure (SMILES)	TEAD-luciferase reporter activity (compound concentration: 2 uM)	TEAD-luciferase reporter activity (compound concentration: 200 nM)	TEAD-luciferase reporter activity (compound concentration: 10 uM)
O=C1CN(/N=C/c2ccc([N+](=O)[O-])o2)C(=O)N1 [Nitrofurantoin]	inactive: 0.107		
O=C1CN(/N=C/c2ccc([N+](=O)[O-])o2)C(=O)N1		inactive: 0.358	inactive: -0.00789
Nc1nccc2c1ncn2[C@@H]1O[C@H](CO)[C@@H](O)[C@H]1O [3-Deazaadenosine]	inactive: -1.07	inactive: -0.716	inactive: -0.882
O=C(Nc1cccc(OC(F)(F)F)c1)O[C@@H]1COc2nc([N+](=O)[O-])cn2C1	inactive: -1.88	inactive: 0.904	inactive: -0.198
O=C(O)CC[C@H]1CC[C@@](c2cc(F)ccc2F)(S(=O)(=O)c2ccc(Cl)cc2)CC1	inactive: -1.03	inactive: -0.321	inactive: -2.15
CC[C@@H]([C@H](C)O)n1ncn(-c2ccc(N3CCN(c4ccc(OC[C@@H]5CO[C@@](Cn6cncn6)(c6ccc(F)cc6F)C5)cc4)CC3)cc2)c1=O [posaconazole]	inactive: 0.745	inactive: -1.01	inactive: 1.41
COc1cc(F)cc2c1-c1c(OC)cc(F)cc1C21NC(=O)NC1=O	inactive: -1.6	inactive: -1.09	inactive: 0.834
COc1cc(-n2cnc3cc(-c4ccc(Cl)cc4)sc3c2=O)ccc1OCC(OP(=O)(O)O)C1CC1 (stereo not given)	inactive: -1.3	inactive: -0.0997	inactive: -1.43
COC[C@H](NC(=O)c1cnc(C)s1)C(=O)N[C@@H](COC)C(=O)N[C@@H](Cc1ccccc1)C(=O)C1(C)CO1 (stereo not given in full) [oprozomib]	inactive: -1.55	inactive: 0.413	inactive: 0.0228
COc1cc(C(=O)OCCCN2CCCN(CCCOC(=O)c3cc(OC)c(OC)c(OC)c3)CC2)cc(OC)c1OC [dilazep]	inactive: -0.953	inactive: 1.61	inactive: 3.59
Nc1nc(=O)n([C@H]2CC(O)C(CO)O2)cc1I (stereo not given in full) [ibacitabine]	inactive: 0.862	inactive: -0.597	active: 9.95
CC(=N)NCCCCC(N)C(=O)Nc1nnn[nH]1 (stereo not given)	inactive: -0.141	inactive: -0.084	inactive: 2.27
CC(C)(CS(=O)(=O)c1ccc(OC(=O)C(C)(C)c2ccc(C(C)(C)C(=O)Oc3ccc(S(=O)(=O)CC(C)(C)C(=O)O)cc3)cc2)cc1)C(=O)O	inactive: -0.258	inactive: -0.00781	inactive: -1.19
CC(C)(C)NCC(O)COc1ccccc1OCC1CCCO1 (stereo not given)	inactive: -0.718	inactive: -1.42	inactive: 0.733
CC(C)n1c(=O)c2c(-c3noc(C4CC4)n3)ncn2c2ccccc21	inactive: -0.677	inactive: 1.18	inactive: -0.323
O=C(c1ccccc1)N1CCC(N2CCCC2=O)CC1		inactive: 1.44	inactive: 1.5
CCc1cc(N2CCC(N)C2)nc(N)n1 (stereo not given)	inactive: 0.727	inactive: -0.206	active: 5.89
CC(=O)[C@@]1(O)[C@H](O)C[C@H]2[C@@H]3CCC4=CC(=O)CC[C@]4(C)[C@H]3CC[C@@]21C	inactive: 0.132	inactive: -1	inactive: 0.904
CC1(C)CCC(C)(C)c2cc(C#Cc3ccc(C(=O)O)cc3)ccc21	inactive: -1.14	inactive: 1.15	inactive: 1.04
C=CCc1cc(OC)c(O)c(C(=O)NCCO)c1	inactive: 0.291	inactive: -2.31	inactive: -0.144
CCCc1ccc(NS(=O)(=O)Cc2ccccc2)c(=O)n1CC(=O)NCc1cccc(OC)c1	inactive: 0.343	inactive: 1.26	inactive: -0.118
COc1cc2c(Oc3ccc4[nH]c(C)cc4c3F)ccnc2cc1OCC1(N)CC1 [Anlotinib dihydrochloride]	inactive: -0.813	inactive: -0.108	inactive: -1.79
c1cc(OCCCN2CCCCC2)ccc1CN1CCCCC1	inactive: 0.67	inactive: -0.424	inactive: -0.549
CC(=O)N1CC2(CCN(C(=O)c3ccc(Cl)cc3)CC2)Cc2ccccc21		inactive: -1.13	inactive: -1.18
CN1C[C@@H]2[C@H](C1)[C@H]2CN(Cc1ccc(F)c(Cl)c1)C(=O)c1cn(C)cn1	inactive: -0.354	inactive: -1.35	inactive: 4.04
N#CN/C(=N\CCO[N+](=O)[O-])c1cccnc1	inactive: -0.559	inactive: -0.707	inactive: -1.57
NC(=O)C(c1ccccc1)(c1ccc(F)cc1)c1ccc(F)cc1 [senicapoc]	inactive: -0.999	inactive: -1.43	inactive: -1.19

Structure (SMILES)	TEAD-luciferase reporter activity (compound concentration: 2 uM)	TEAD-luciferase reporter activity (compound concentration: 200 nM)	TEAD-luciferase reporter activity (compound concentration: 10 uM)
CC(C)Oc1ncc(-c2nc(-c3cccc4c3ccn4CCCC(=O)O)no2)cc1Cl	inactive: -0.685	inactive: -1.02	active: 5.23
CC(=O)NCC1(c2ccccc2)CCN(C[C@@H]2COc3ccccc3O2)CC1	inactive: -0.125	inactive: -0.46	inactive: -0.508
C[n+]1ccc(SCC2=C(C(=O)O)N3C(=O)[C@H](NC(=O)/C(=N/OC(C)(C)C(=O)[O-])c4csc(N)n4)[C@@H]3S(=O)C2)cc1 (stereo not given in full)	inactive: -0.125	inactive: -0.939	inactive: -0.707
CO[C@H]1C[C@@H]2CC[C@@H](C)[C@@](O)(O2)C(=O)C(=O)N2CCCC[C@H]2C(=O)O[C@H]([C@H](C)C[C@H]2CC[C@@H](OP(C)(C)=O)[C@H](OC)C2)CC(=O)[C@H](C)/C=C(\C)[C@@H](O)[C@@H](OC)C(=O)[C@H](C)C[C@H](C)/C=C/C=C/C=C/1C [Deforolimus]	inactive: 0.379	inactive: -0.194	inactive: 4.91
CC(COc1ccccc1)N(C)CCOC(c1ccccc1)c1ccccc1 (stereo not given) [prenoverine]	inactive: -0.295	inactive: -1.17	inactive: -0.749
Cc1onc(-c2ccccc2)c1C(=O)N[C@@H]1C(=O)N2[C@@H]1SC(C)(C)[C@@H]2C(=O)O [Oxacillin sodium monohydrate]	inactive: 0.234	inactive: 0.168	inactive: 0.434
CCCCCCCCOCCOC(=O)CN(CC(=O)O)c1ccccc1OCCOc1ccccc1N(CC(=O)O)CC(=O)OCCOCCCCCCCC	inactive: -1.18	active: 5.25	inactive: -1.67
COc1ccc(C(=O)N2Cc3ccccc3CC23CCCN(C(=O)CCN)C3)cc1 (stereo not given)		inactive: -0.347	inactive: 3.24
CC(C)NCC(O)COc1ccc(CCOCC2CC2)cc1 (stereo not given)		inactive: -2.19	active: 7.47
CC(C)NCC(O)COc1ccc(CCOCC2CC2)cc1 (stereo not given) [betaxolol, ophthalmic]	inactive: -1.4		
C=CCCCCCCCCC(=O)OCCC1CCN(CCCN2c3ccccc3Sc3ccc(S(=O)(=O)N(C)C)cc32)CC1	inactive: 0.671	inactive: -1.3	inactive: -0.253
CC(=O)OCC[N+](C)(C)C	inactive: -0.229		
CC(=O)OCC[N+](C)(C)C [Miochol]		inactive: -1.08	inactive: 0.0117
Cn1nnnc1SCC1=C(C(=O)O)N2C(=O)[C@@H](NC(=O)/C(=N/OCC(=O)O)c3ccn[nH]3)[C@H]2SC1	inactive: -0.971	inactive: -0.00218	inactive: 0.895
Nc1nc2c(ncn2OCCCO)c(=O)[nH]1	inactive: -0.246	inactive: -0.726	inactive: -0.816
O=C(O)CCC/C=C\C[C@@H]1CO[C@H](C(F)(F)F)O[C@@H]1c1ccccc1O	inactive: 0.268	inactive: -2.38	inactive: -1.01
CCn1cnc(C(=O)NC)c1C(=O)NC [Ethimizol]	inactive: 2.08	inactive: 0.377	inactive: 0.272
CC(NC(=O)C(CS)C(C)c1ccccc1)C(=O)O (single isomer, unassigned) [unknown stereoisomer of RB-105]	inactive: 0.597		
CC(=O)OC[C@H](N)C(=O)O [Thromboxol]	inactive: -1.67	inactive: -1.23	inactive: 0.459
CNCCC(c1cccc(F)c1)c1cccc(F)c1 [delucemine hydrochloride]	inactive: 0.762	inactive: 0.692	inactive: 0.134
CN1CCN(c2nccn(CCOc3cc(F)c(F)cc3F)c2=O)CC1	inactive: -0.689	inactive: 0.998	inactive: -1.44
O=C([O][Cr]([O]C(=O)c1ccccn1)[O]C(=O)c1ccccn1)c1ccccn1 [Chromium picolinate]	inactive: -1.26	inactive: 0.466	inactive: 0.875
CC(=O)c1ccc2c(c1)[C@H](NC(=O)c1ccc(F)c(Cl)c1)[C@H](O)C(C)(C)O2 [tonabersat]	inactive: -1.31	inactive: 0.198	inactive: 0.785
O=C(O)COCCN1CCN(C(c2ccccc2)c2ccc(F)cc2)CC1 (stereo not given)	inactive: 0.747	inactive: -0.531	inactive: 0.346
COC(=O)N(C)c1c(N)nc(-c2nn(Cc3ccccc3F)c3ncccc23)nc1N [Riociguat]		inactive: -0.901	inactive: -1.03
COC(=O)N(C)c1c(N)nc(-c2nn(Cc3ccccc3F)c3ncccc23)nc1N [riociguat]	inactive: 0.936		
COc1ccc2c(O[C@@H]3C[C@H]4C(=O)N[C@]5(C(=O)NS(=O)(=O)C6CC6)C[C@H]5/C=C\CCCCN(C)C(=O)[C@@H]4C3)cc(-c3nc(C(C)C)cs3)nc2c1C [Simeprevir]	inactive: -1.3	inactive: -0.511	inactive: -0.14

4 entries from above, as labelled records.
Cc1onc(-c2ccccc2)c1C(=O)N[C@@H]1C(=O)N2[C@@H]1SC(C)(C)[C@@H]2C(=O)O [Oxacillin sodium monohydrate]
  TEAD-luciferase reporter activity (compound concentration: 2 uM): inactive: 0.234
  TEAD-luciferase reporter activity (compound concentration: 200 nM): inactive: 0.168
  TEAD-luciferase reporter activity (compound concentration: 10 uM): inactive: 0.434
CCCCCCCCOCCOC(=O)CN(CC(=O)O)c1ccccc1OCCOc1ccccc1N(CC(=O)O)CC(=O)OCCOCCCCCCCC
  TEAD-luciferase reporter activity (compound concentration: 2 uM): inactive: -1.18
  TEAD-luciferase reporter activity (compound concentration: 200 nM): active: 5.25
  TEAD-luciferase reporter activity (compound concentration: 10 uM): inactive: -1.67
COc1ccc(C(=O)N2Cc3ccccc3CC23CCCN(C(=O)CCN)C3)cc1 (stereo not given)
  TEAD-luciferase reporter activity (compound concentration: 200 nM): inactive: -0.347
  TEAD-luciferase reporter activity (compound concentration: 10 uM): inactive: 3.24
CC(C)NCC(O)COc1ccc(CCOCC2CC2)cc1 (stereo not given)
  TEAD-luciferase reporter activity (compound concentration: 200 nM): inactive: -2.19
  TEAD-luciferase reporter activity (compound concentration: 10 uM): active: 7.47
